# Laboratory results: PMC7819943, “Rice protein-binding microarrays: a tool to detect cis-acting elements near promoter regions in rice”
# This is one part of the list.
# Molecular target: T1, OsSMF1 (Oryza sativa, UniProt Q6ZLB0 1-436)
# T1 sequence: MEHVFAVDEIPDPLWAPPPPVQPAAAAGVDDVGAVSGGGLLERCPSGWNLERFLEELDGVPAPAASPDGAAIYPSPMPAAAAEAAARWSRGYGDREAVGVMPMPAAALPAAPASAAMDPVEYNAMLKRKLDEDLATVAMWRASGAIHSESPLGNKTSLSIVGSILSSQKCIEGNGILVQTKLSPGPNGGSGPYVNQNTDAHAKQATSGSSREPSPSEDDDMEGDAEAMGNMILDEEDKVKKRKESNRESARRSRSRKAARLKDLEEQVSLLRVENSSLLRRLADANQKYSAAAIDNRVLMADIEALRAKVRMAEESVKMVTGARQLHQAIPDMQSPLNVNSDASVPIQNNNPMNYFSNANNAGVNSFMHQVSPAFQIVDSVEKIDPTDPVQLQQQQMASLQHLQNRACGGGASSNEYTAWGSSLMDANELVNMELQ
# Test: protein-binding microarray (RPBM); PBS, 2% BSA, 51.3 ng/ul salmon testes DNA, 50 uM zinc acetate, 200 nM TF, 25 C, 1 h; high values mean tight binding
# Details: protein: recombinant; tags: N-terminal polyhistidine and DsRed monomer fusion (pET32a); chain copies: 2; label: CyDye5-dUTP incorporated in the synthesized complementary strand; 3' TTTTT single-stranded linker to array surface; dsDNA, one strand shown
# Outline: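 The binding signal is fluorescence intensity per array feature (arbitrary units). Readings came from an Axon 4000B scanner after a washed, 2% BSA-blocked, double-stranded custom Agilent array had been incubated for 1 h at 25 °C with 200 nM protein and 50 µM zinc acetate. The protein was a Ni–NTA-purified transcription factor fused N-terminally to polyhistidine and DsRed, expressed in E. coli BL21-CodonPlus.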
row,Sequence,binding signal
1,ATAATAAACTGAGAGGAGGATAGTAATATGTACTTAGTAACGGAGTCACCTAGTGCAG,48400 fluorescence intensity (a.u.)
2,CGAGGCGTGTGTCAGACCGCCTGTTGTCACCTAACCCACGCGGAGTCACCTAGTGCAG,3980 fluorescence intensity (a.u.)
3,GAGGGTACGGTACAAACTTTTATACACCGTCTGTCACGTTCGGAGTCACCTAGTGCAG,3150 fluorescence intensity (a.u.)
4,TCAGTCGGGATGGCGCTGTCACGCTGTCGGTTGATCGGTCCGGAGTCACCTAGTGCAG,3640 fluorescence intensity (a.u.)
5,ATTAACCCCAAACATCCTCTTACTCCTCAACTACACATCACGGAGTCACCTAGTGCAG,3210 fluorescence intensity (a.u.)
6,GTTCGTGGTCATCGTCACTCGCCGCTCCCCACATCCGCGCCGGAGTCACCTAGTGCAG,4780 fluorescence intensity (a.u.)
7,GACAATTATACTTTATGACACAAAATTGAATCCACCTCATCGGAGTCACCTAGTGCAG,3410 fluorescence intensity (a.u.)
8,TAACTAAGACCCTCCACGCCTGTTAGTCTGTATGTCATTTCGGAGTCACCTAGTGCAG,3450 fluorescence intensity (a.u.)
9,GAGGCGTGTGGCGTGTGACGTGTGGATTCCCCTCTCCCCGCGGAGTCACCTAGTGCAG,9410 fluorescence intensity (a.u.)
10,CAAGGGGAATACAATTATGTGGATTGGTGCTTAGTGTGGTCGGAGTCACCTAGTGCAG,3260 fluorescence intensity (a.u.)
11,GATGAGGCGTCCGCGTCCTCTTGTCATCCGGGTACGACTGCGGAGTCACCTAGTGCAG,3850 fluorescence intensity (a.u.)
12,CACTGCTTTCACTGGAGACCAAAACTGGCTCTCTTTCACACGGAGTCACCTAGTGCAG,5220 fluorescence intensity (a.u.)
13,TAGTGGAATGTGACACATACTGATACTACGAATCTAAACACGGAGTCACCTAGTGCAG,3150 fluorescence intensity (a.u.)
14,CAGCCCAGCTCACCACCCTGTCAGCTCGTTCTTCCTCCTCCGGAGTCACCTAGTGCAG,4070 fluorescence intensity (a.u.)
15,TGAGGGTGTGGGACGACACAGATCGTAACTGGATTGATCGCGGAGTCACCTAGTGCAG,3830 fluorescence intensity (a.u.)
16,TGGTAACATATACCTAGCTGATGATGGCTACCATTGGAGGCGGAGTCACCTAGTGCAG,3420 fluorescence intensity (a.u.)
17,GGAGAGGGGAAGTGGTGACGGTCAGTGGTGGATCCATGCACGGAGTCACCTAGTGCAG,3270 fluorescence intensity (a.u.)
18,CCGAGGAAACAATTATTGGTGACGTAGCTAAATCTTAGGTCGGAGTCACCTAGTGCAG,6430 fluorescence intensity (a.u.)
19,CCATCGGGAGGAGCAAAGCAAACGTGGCAACAACGCTCGTCGGAGTCACCTAGTGCAG,4840 fluorescence intensity (a.u.)
20,GGTGTGTTTTCTTGCATGACGGGTGTGTTTTCTCCTTAAACGGAGTCACCTAGTGCAG,5060 fluorescence intensity (a.u.)
21,TTTCTCTAATTTATTTGCACCACGTAGCGACTTAGGATAGCGGAGTCACCTAGTGCAG,3980 fluorescence intensity (a.u.)
22,GGGCACGTGGAGAAACATTTCTTTCTAATCCAGCTCAACTCGGAGTCACCTAGTGCAG,3560 fluorescence intensity (a.u.)
23,CAAAGAGCGATTTTGCCGACGTGGCATACAGCCATTGAACCGGAGTCACCTAGTGCAG,19700 fluorescence intensity (a.u.)

# Single entries from above.
# Entry of CCATCGGGAGGAGCAAAGCAAACGTGGCAACAACGCTCGTCGGAGTCACCTAGTGCAG under binding signal: 4840 fluorescence intensity (a.u.)
# Entry of ATTAACCCCAAACATCCTCTTACTCCTCAACTACACATCACGGAGTCACCTAGTGCAG under binding signal: 3210 fluorescence intensity (a.u.)
